PubChem BioAssay AID493246 – Drosophila RNAi Screening Center – 2011

Screen: 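Genes fly cells need to grow and stay alive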 (primary screen)
System: Drosophila Kc and S2R+ cells
Reagent: long dsRNA against Drosophila genes
Measured: 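Raw, unnormalised count of remaining cells in each well; per-plate z-scores of cell number underlie the calls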
Direction: Kc cell number and S2R+ cell number: higher = more cells remaining
Active means: 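Active when the per-plate z-score of cell number is 3 or more in the direction of fewer cells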
The screen tested about 21,000 reagents; this is an unselected part of those with a known target gene and a result. In the full data, 429 (2%) got an active call. 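Values are raw and not normalised between plates; calls rest on per-plate z-scores that were not deposited.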 A number with no mark means an inactive call. No sequences are given here. The record does not give: the amount of reagent, the time to read-out.

For Golgin104 [DRSC10459], how do the results read?
Kc cell number, rep 1: 1.61e6; Kc cell number, rep 2: 1.64e6; S2R+ cell number, rep 1: 1.25e6; S2R+ cell number, rep 2: 1.33e6

What is on record for Ugt303B3 [DRSC14199]?
Kc cell number, rep 1: 1.60e6; Kc cell number, rep 2: 1.53e6; S2R+ cell number, rep 1: 1.05e6; S2R+ cell number, rep 2: 1.14e6

What is on record for CG14401 [DRSC02385]?
Kc cell number, rep 1: 1.51e6; Kc cell number, rep 2: 1.67e6; S2R+ cell number, rep 1: 1.31e6; S2R+ cell number, rep 2: 3.57e5

For CG9121 [DRSC03142], what was measured?
Kc cell number, rep 1: 1.59e6; Kc cell number, rep 2: 1.49e6; S2R+ cell number, rep 1: 1.13e6; S2R+ cell number, rep 2: 1.31e6

What did the screen give for CG1416 [DRSC03706]?
Kc cell number, rep 1: 1.52e6; Kc cell number, rep 2: 1.64e6; S2R+ cell number, rep 1: 1.16e6; S2R+ cell number, rep 2: 1.17e6

What is on record for BRWD3 [DRSC15369]?
Kc cell number, rep 1: 1.58e6; Kc cell number, rep 2: 1.72e6; S2R+ cell number, rep 1: 1.14e6; S2R+ cell number, rep 2: 1.19e6

What did the screen give for BRWD3 [DRSC16032]?
Kc cell number, rep 1: 1.43e6; Kc cell number, rep 2: 1.52e6; S2R+ cell number, rep 1: 1.04e6; S2R+ cell number, rep 2: 1.10e6

For CG15905 [DRSC06591], what was measured?
Kc cell number, rep 1: 1.60e6; Kc cell number, rep 2: 1.77e6; S2R+ cell number, rep 1: 1.30e6; S2R+ cell number, rep 2: 1.51e6

With CG34461 [DRSC10767], what does the deposit list?
Kc cell number, rep 1: 1.65e6; Kc cell number, rep 2: 1.70e6; S2R+ cell number, rep 1: 1.33e6; S2R+ cell number, rep 2: 1.17e6

Records above whose target name begins with C or c:
CG14401 [DRSC02385] | Kc cell number, rep 1 = 1.51e6; Kc cell number, rep 2 = 1.67e6; S2R+ cell number, rep 1 = 1.31e6; S2R+ cell number, rep 2 = 3.57e5
CG9121 [DRSC03142] | Kc cell number, rep 1 = 1.59e6; Kc cell number, rep 2 = 1.49e6; S2R+ cell number, rep 1 = 1.13e6; S2R+ cell number, rep 2 = 1.31e6
CG1416 [DRSC03706] | Kc cell number, rep 1 = 1.52e6; Kc cell number, rep 2 = 1.64e6; S2R+ cell number, rep 1 = 1.16e6; S2R+ cell number, rep 2 = 1.17e6
CG15905 [DRSC06591] | Kc cell number, rep 1 = 1.60e6; Kc cell number, rep 2 = 1.77e6; S2R+ cell number, rep 1 = 1.30e6; S2R+ cell number, rep 2 = 1.51e6
CG34461 [DRSC10767] | Kc cell number, rep 1 = 1.65e6; Kc cell number, rep 2 = 1.70e6; S2R+ cell number, rep 1 = 1.33e6; S2R+ cell number, rep 2 = 1.17e6

The results go on.
For CG31937 [DRSC00514], how do the results read?
Kc cell number, rep 1: 1.41e6; Kc cell number, rep 2: 1.38e6; S2R+ cell number, rep 1: 1.17e6; S2R+ cell number, rep 2: 1.17e6

With CG32815 [DRSC18177], what does the deposit list?
Kc cell number, rep 1: 1.66e6; Kc cell number, rep 2: 1.68e6; S2R+ cell number, rep 1: 1.06e6; S2R+ cell number, rep 2: 1.23e6

With PIG-B [DRSC08216], what was measured?
Kc cell number, rep 1: 1.34e6; Kc cell number, rep 2: 1.53e6; S2R+ cell number, rep 1: 1.06e6; S2R+ cell number, rep 2: 1.17e6

Which result is listed for CG14892 [DRSC15014]?
Kc cell number, rep 1: 1.36e6; Kc cell number, rep 2: 1.35e6; S2R+ cell number, rep 1: 9.19e5; S2R+ cell number, rep 2: 1.04e6

What did the screen give for FBXO11 [DRSC16497]?
Kc cell number, rep 1: 1.57e6; Kc cell number, rep 2: 1.69e6; S2R+ cell number, rep 1: 1.34e6; S2R+ cell number, rep 2: 1.37e6

What did the screen give for CG4658 [DRSC02768]?
Kc cell number, rep 1: 1.76e6; Kc cell number, rep 2: 1.83e6; S2R+ cell number, rep 1: 1.41e6; S2R+ cell number, rep 2: 1.58e6

Which result is listed for CG32176 [DRSC10057]?
Kc cell number, rep 1: 1.56e6; Kc cell number, rep 2: 1.57e6; S2R+ cell number, rep 1: 1.19e6; S2R+ cell number, rep 2: 1.33e6

What is on record for CG32176 [DRSC10058]?
Kc cell number, rep 1: 1.37e6; Kc cell number, rep 2: 1.48e6; S2R+ cell number, rep 1: 1.22e6; S2R+ cell number, rep 2: 1.34e6

Which result is listed for CG12420 [DRSC14514]?
Kc cell number, rep 1: 1.36e6; Kc cell number, rep 2: 1.31e6; S2R+ cell number, rep 1: 1.00e6; S2R+ cell number, rep 2: 1.16e6

For CG4872 [DRSC19921], how do the results read?
Kc cell number, rep 1: 1.44e6; Kc cell number, rep 2: 1.54e6; S2R+ cell number, rep 1: 1.06e6; S2R+ cell number, rep 2: 1.19e6

With CG5087 [DRSC10479], what does the deposit list?
Kc cell number, rep 1: 1.30e6; Kc cell number, rep 2: 1.29e6; S2R+ cell number, rep 1: 1.29e6; S2R+ cell number, rep 2: 1.29e6

For CG18210 (retired record) [DRSC19089], what does the deposit list?
Kc cell number, rep 1: 1.63e6; Kc cell number, rep 2: 1.87e6; S2R+ cell number, rep 1: 1.10e6; S2R+ cell number, rep 2: 1.31e6

What did the screen give for CG18210 (retired record) [DRSC19795]?
Kc cell number, rep 1: 5.62e5; S2R+ cell number, rep 1: 8.72e5
